One molecule from publication doi:10.1101/2024.07.30.605799 (bioRxiv, 2024) can be followed below.

This experiment has as its target human CAD DHO domain bearing S1538L (human) (UniProt P27708). The experiment is described as follows: SEC.

Results are given in words; binding and its absence hold for the method and conditions named.

B1: human CAD DHO domain bearing S1538L (domain or fragment, UniProt P27708 1456-1846, looked up)
chain: MTSQKLVRLPGLIDVHVHLREPGGTHKEDFASGTAAALAGGITMVCAMPNTRPPIIDAPALALAQKLAEAGARCDFALFLGALSENAGTLGTVAGSAAGLKLYLNETFSELRLDSVVQWMEHFETWPSHLPIVAHAEQQTVAAVLMVAQLTQRSVHICHVARKEEILLIKAAKARGLPVTCEVAPHHLFLSHDDLERLGPGKGEVRPELGSRQDVEALWENMAVIDCFASDHAPHTLEEKCGSRPPPGFPGLETMLPLLLTAVSEGRLSLDDLLQRLHHNPRRIFHLPPQEDTYVEVDLEHEWTIPSHMPFSKAHWTPFEGQKVKGTVRRVVLRGEVAYIDGQVLVPPGYGQDVRKWPQGAVPQLPPSAPATSEMTTTPERPRRGIPGLPD
modifications: carboxylated lysine K1556
As to B1, the binding result was “no binding (condition: with 2 mM Ca-Asp)”.
